According to paper PMC10399995:
Substitutions are numbered along the chain they refer to. Results are given in words; binding and its absence hold for the method and conditions named. In cells and extracts the contact can be indirect. Some results given as binding are weak or reduced against the parent protein; the word gives no strength. Tags and fused reporters may be left off the sequences shown.

Protein sequences, listed by entry. Tags and fused reporters are not part of them.
UniProt Q5S007: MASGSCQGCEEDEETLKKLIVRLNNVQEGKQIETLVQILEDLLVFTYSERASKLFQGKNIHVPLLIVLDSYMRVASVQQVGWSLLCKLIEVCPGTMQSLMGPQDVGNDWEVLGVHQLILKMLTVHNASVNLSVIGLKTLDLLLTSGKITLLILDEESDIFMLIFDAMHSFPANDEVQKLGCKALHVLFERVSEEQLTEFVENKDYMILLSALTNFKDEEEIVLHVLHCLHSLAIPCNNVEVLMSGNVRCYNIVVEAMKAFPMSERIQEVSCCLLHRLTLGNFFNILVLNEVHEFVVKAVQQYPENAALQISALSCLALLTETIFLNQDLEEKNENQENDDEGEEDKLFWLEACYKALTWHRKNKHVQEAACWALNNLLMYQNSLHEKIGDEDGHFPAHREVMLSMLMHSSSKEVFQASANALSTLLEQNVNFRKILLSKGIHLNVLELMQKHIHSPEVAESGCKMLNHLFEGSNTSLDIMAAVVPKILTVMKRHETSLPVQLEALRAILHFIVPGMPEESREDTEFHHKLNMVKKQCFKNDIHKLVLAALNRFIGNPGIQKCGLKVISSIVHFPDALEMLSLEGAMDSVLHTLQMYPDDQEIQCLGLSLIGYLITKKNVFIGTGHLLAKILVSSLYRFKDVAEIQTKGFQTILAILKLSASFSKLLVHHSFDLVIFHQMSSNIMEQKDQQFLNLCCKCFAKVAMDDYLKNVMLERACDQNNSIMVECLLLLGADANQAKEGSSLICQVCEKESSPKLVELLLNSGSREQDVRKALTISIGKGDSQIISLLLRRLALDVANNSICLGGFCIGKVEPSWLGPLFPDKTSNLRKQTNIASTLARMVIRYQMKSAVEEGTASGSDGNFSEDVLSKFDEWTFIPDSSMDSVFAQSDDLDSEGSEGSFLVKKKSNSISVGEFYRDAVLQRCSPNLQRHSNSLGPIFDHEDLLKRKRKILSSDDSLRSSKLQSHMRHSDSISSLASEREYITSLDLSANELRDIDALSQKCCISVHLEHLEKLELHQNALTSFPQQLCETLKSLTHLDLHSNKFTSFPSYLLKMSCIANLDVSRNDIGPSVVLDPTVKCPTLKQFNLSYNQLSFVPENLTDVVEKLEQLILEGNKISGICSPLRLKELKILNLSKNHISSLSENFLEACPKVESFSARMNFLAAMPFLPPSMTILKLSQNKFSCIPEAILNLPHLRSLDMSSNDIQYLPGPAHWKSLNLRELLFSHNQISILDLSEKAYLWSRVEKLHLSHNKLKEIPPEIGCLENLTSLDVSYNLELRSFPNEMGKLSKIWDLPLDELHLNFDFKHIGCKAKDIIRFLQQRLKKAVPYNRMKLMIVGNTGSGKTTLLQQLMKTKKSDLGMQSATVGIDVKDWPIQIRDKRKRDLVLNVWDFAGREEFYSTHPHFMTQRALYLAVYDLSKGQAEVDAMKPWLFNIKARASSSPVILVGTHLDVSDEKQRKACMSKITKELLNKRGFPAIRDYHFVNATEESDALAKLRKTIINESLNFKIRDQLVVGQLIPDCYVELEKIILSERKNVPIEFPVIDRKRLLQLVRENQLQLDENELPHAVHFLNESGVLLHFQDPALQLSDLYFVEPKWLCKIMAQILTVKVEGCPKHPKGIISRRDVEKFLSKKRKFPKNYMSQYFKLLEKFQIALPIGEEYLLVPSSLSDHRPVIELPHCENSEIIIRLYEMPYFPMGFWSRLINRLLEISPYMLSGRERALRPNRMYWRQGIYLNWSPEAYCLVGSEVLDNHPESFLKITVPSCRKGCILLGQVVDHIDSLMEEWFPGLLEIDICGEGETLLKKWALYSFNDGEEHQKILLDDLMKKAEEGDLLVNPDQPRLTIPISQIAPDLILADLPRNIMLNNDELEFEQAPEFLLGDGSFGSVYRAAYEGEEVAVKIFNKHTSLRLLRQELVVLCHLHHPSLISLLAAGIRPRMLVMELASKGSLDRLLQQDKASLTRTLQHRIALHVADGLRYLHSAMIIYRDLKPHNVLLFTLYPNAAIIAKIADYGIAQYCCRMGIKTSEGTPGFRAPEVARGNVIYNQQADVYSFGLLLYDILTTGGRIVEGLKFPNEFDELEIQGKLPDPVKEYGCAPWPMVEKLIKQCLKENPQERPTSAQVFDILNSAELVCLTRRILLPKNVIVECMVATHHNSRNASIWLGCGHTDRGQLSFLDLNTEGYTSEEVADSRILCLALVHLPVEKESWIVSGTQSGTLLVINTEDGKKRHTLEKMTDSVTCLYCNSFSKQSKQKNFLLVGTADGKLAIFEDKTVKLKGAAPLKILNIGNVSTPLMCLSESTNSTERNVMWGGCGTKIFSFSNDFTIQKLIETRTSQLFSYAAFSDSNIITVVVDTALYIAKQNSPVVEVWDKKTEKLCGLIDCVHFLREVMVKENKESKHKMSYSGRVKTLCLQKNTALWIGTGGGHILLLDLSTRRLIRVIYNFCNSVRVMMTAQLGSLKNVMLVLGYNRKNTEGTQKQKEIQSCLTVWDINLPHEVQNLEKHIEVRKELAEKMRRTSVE

Tests used:
Assay in all cases: co-IP; Fig. S4C, legend not shown; the methods describe immunoprecipitation from cell lysates with Protein G-agarose and antibody or with GFP-Trap beads, 4°C, washes in TBS
[1] = target: T1, GFP-Rab29 S185A (human Rab29) (human) (UniProt O14966)
T1 sequence: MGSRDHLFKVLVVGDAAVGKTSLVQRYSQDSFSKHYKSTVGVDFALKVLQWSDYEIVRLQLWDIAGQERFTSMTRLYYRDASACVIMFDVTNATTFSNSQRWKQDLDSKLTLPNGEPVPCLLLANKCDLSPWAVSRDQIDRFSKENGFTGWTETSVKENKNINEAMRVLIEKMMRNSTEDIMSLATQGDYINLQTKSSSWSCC

[2] = target: T2, GFP-Rab29 S185D (human Rab29) (human) (UniProt O14966)
T2 sequence: T1 sequence with A185D

[3] = target: T3, GFP-Rab29 S185E (human Rab29) (human) (UniProt O14966)
T3 sequence: T1 sequence with A185E

[4] = target: T4, GFP-Rab29 wild type (human Rab29) (human) (UniProt O14966)
T4 sequence: T1 sequence with A185S

Measured: binding

leucine-rich repeat kinase 2 (LRRK2) (from UniProt Q5S007 1-2527) (enzyme)
binds: all assays above
